Test results published in PubChem BioAssay AID493014 (National Center for Advancing Translational Sciences (NCATS), 2011).
Screen size: about 340,000 compounds; about 170 (0.05%) were called active. The shares of active, inactive and inconclusive entries below differ from those in the screen. The call rests on the fitted dose curve; in most records, active means well fitted inhibition curve with a large enough effect in the signal ratio, with a control signal flat (not every such curve was filed as active); inconclusive means small, poorly fitted or top-dose-only effect, or effect the other way, or a change in a side signal; inactive means flat fitted curve, though single readings scatter; the % refers to the signal ratio. A potency beside an inconclusive call is a rough fit, not a confirmed value.

Experiment: qHTS Assay to Find Inhibitors of Chronic Active B-Cell Receptor Signaling;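 on activity change, negative = inhibition: plate controls were basal doxycycline-induced cells for no effect and cells given 10 µM MG132 for full effect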
Conditions: ABC-DLBCL IkBa-CBG/CBR reporter, luminescence ratio (green luciferase fused to IkBa over red control in TMD8 lymphoma cells), 4 h; activity change, negative = inhibition: at 46.1 µM (top of the series)
In short: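 Concentration-response series (up to 46 uM) were applied to TMD8 dual-reporter cells for 4 h at 37C with doxycycline. Green/red ratio, after filter-overlap correction, defined %Activity; red signal alone was normalised to basal cells and zero luminescence.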
Potency means the concentration at half of the fitted maximal effect.

SMILES	activity change, negative = inhibition	Potency
CC(C)OC(=O)c1ccc(N2C(=O)C3CC=CCC3C2=O)cc1 (stereo not given)	inconclusive: 9.99%	
C#CCSc1nc2sc3c(c2c(=O)n1C)CCC3	inconclusive: 2.9%	
O=C(OCc1nnc(-c2ccccc2)o1)c1ccc(CO)cc1	inactive: -1.32%	
CN1CCc2ccc(NC(=O)c3ccc(C(F)(F)F)cc3)cc2C1	inactive: -3.75%	
NNc1ncnc2c1cnn2-c1ccccc1		inconclusive: 20.6 µM [rising, partial curve]
Cc1cc(NC(=O)NC2(C(F)(F)F)Oc3ccc(Cl)cc3O2)no1 (stereo not given)	inactive: -3.85%	
Cc1ccc(NC(=O)c2ccc3ncsc3c2)cc1S(=O)(=O)N(C)C		inconclusive: 31.6 µM [falling, single point]
Cc1nn(C)c(Cl)c1CN1CCN(CC(C)C)C(CCO)C1 (stereo not given)	inconclusive: 1.5%	
COc1ccc(CCNC(=O)CSc2ncc(C(=O)Nc3ccccc3)c(=O)n2C)cc1	inconclusive: 2.99%	
CCSc1nnc(NC(=O)CSc2sc3c(O)cc(=O)[nH]c3c2C#N)s1		inconclusive: 31.6 µM [falling, single point]
COc1ccc2nc(N)sc2c1		inconclusive: 22.4 µM [falling, single point]
O=C(NC1=NCCS1)c1cc(-c2cccs2)nc2ccccc12	inconclusive: 0.615%	
O=C(NC(Cc1c[nH]c2ccccc12)C(=O)N/N=C/c1cccc2ccccc12)c1cccs1 (stereo not given)		inconclusive: 25.9 µM [rising, single point]
CC(C)c1ccc2oc(-c3ccc(N)cc3)nc2c1		inconclusive: 35.5 µM [rising, single point]
COc1ccc(OC)c(Cc2nnc(CCC(=O)N3CCCCC3c3nccs3)o2)c1 (stereo not given)	inconclusive: 25.1%	
O=C(CSc1ccc2nnc(-c3ccc(Cl)cc3)n2n1)N1CCc2ccccc21	inconclusive: 2.29%	
Cc1cccc(NCc2ccc(Br)cc2)n1	inconclusive: 13.1%	
COc1ccc(/C=N/Nc2ccc([N+](=O)[O-])cc2)cc1O	inconclusive: 1.07%	
O=C(Nc1ccccc1)NC1CCCCC1		inconclusive: 29.1 µM [falling, single point]
CCOC(=O)c1c2c3c(cccc3n(C)c1=O)C(=O)c1ccccc1-2	inactive: 6.2%	
O=C(Nc1ccc(Cl)cc1F)C1CC1c1ccccc1 (stereo not given)	inconclusive: 11%	
O=C(NCCc1ccc(Cl)cc1Cl)c1cc([N+](=O)[O-])c[nH]c1=O		inconclusive: 5.62 µM [rising, single point]
OC(c1ccc(Cl)cc1)c1nccc2ccccc12 (stereo not given)	inconclusive: 6.86%	
COc1ccccc1Nc1nc(N(C)c2ccccc2)nc(N)c1[N+](=O)[O-]	inconclusive: 1.01%	
Cc1ncc(CSc2nc3ccccc3[nH]2)c(N)n1	inconclusive: 14.9%	
O=C(O)CN1C(=O)/C(=C/c2ccc(N3CCCCC3)o2)SC1=S		inconclusive: 12.6 µM [rising, partial curve, poor fit]
CN(C)C(=O)C[n+]1ccc(C(N)=O)cc1	inconclusive: 5.36%	

Reprinted at random: 4 compounds from above
SMILES	activity change, negative = inhibition	Potency
COc1ccc(/C=N/Nc2ccc([N+](=O)[O-])cc2)cc1O	inconclusive: 1.07%	
O=C(NC1=NCCS1)c1cc(-c2cccs2)nc2ccccc12	inconclusive: 0.615%	
Cc1ncc(CSc2nc3ccccc3[nH]2)c(N)n1	inconclusive: 14.9%	
Cc1nn(C)c(Cl)c1CN1CCN(CC(C)C)C(CCO)C1 (stereo not given)	inconclusive: 1.5%	

Further entries:

SMILES	activity change, negative = inhibition	Potency
O=C(N/N=C/c1cccc2ccccc12)c1cccnc1	inactive: -13.5%	
O=c1c2[nH]c3ccc(F)cc3c2nc2n1CCCS2	inconclusive: -8.61%	
Cc1cccc(CCNC(=O)c2cccc3c2C(=O)N(C2CCCCC2)C3)c1		inconclusive: 12.6 µM [rising, partial curve, poor fit]
O=C1Nc2ccc(S(=O)(=O)N3CCCC3)c3ccc(S(=O)(=O)N4CCCC4)c1c23	inactive: -0.296%	
CC1CCCCC12NC(=O)N(CC(=O)N1CCN(S(=O)(=O)Cc3ccccc3)CC1)C2=O (stereo not given)	inconclusive: -9.89%	
COc1ccc2sc(NC(=O)NC(=O)c3c(Cl)cccc3Cl)nc2c1		inconclusive: 35.5 µM [falling, single point]
Nc1c(Nc2ccccc2)c2ccccc2oc1=O	inconclusive: 2.3%	
CCN1C(=O)C2(C(C#N)=C(N)Oc3c2c(C)nn3-c2ccccc2)c2ccccc21 (stereo not given)	inconclusive: 1.28%	
CN(C)c1nc2ncn(Cc3ccccc3)c2c(=O)[nH]1	inconclusive: 4.28%	
CCc1nc2sc(C(C)=O)c(N)c2c2c1CCCC2	inconclusive: 10.3%	
Fc1cc2[nH]cnc2cc1Cl	inconclusive: 15.9%	
Cc1cc([N+](=O)[O-])nn1Cc1ccc(C(=O)N/N=C/c2ccc(N(C)C)cc2)cc1		inconclusive: 35.5 µM [falling, partial curve, poor fit]
CCOC(=O)c1c(C)oc2ncnc(Nc3ccc(OC)c(OC)c3)c12	inactive: -8.62%	
CC(=O)N1[C@H](C)C=C[C@]1(Cc1ccccc1)C(=O)NCCc1c[nH]c2ccccc12	inconclusive: 1.45%	
O=C(CNC(=O)c1ccc(-c2ccccc2)cc1)Nc1ccc(S(=O)(=O)Nc2ncccn2)cc1	inconclusive: -14.2%	
CCCCOC(=O)c1ccc(NC(=O)/C=C/c2cccs2)cc1		inconclusive: 5.17 µM [falling, full curve]
CC(=O)NC1CCCc2c1cnn2-c1ccc(C(C)(C)C)cc1 (stereo not given)	inactive: -10.9%	
COC(=O)[C@H](Cc1ccccc1)NC(=O)NCc1ccc(S(N)(=O)=O)cc1	inconclusive: 8.77%	
Cc1cc(CNC(=O)Cc2c(F)cccc2Cl)nn1C	inconclusive: 4.88%	
CCCc1cc(C(=O)OC)c(NC(=O)OCC)s1	inconclusive: 3.3%	
COc1ccc(OC)c(NC(=O)CN(c2ccc(C)cc2)S(=O)(=O)c2c(C)noc2C)c1		inconclusive: 11.2 µM [rising, partial curve, poor fit]
C=CCN=C1N[C@@H](c2ccc(Br)cc2)C(C(=O)OC)=C(C)N1Cc1ccccc1	inconclusive: 4.55%	
Cc1cc(C)nc(SCC(=O)N2CCC(C(N)=O)CC2)n1	inconclusive: 12.1%	
Cc1cc(C(=O)N/N=C2\CCCC(C)C2)n[nH]1 (stereo not given)		inconclusive: 2.59 µM [falling, partial curve, poor fit]
O=c1c2cc(Br)ccc2nc(-c2cccc(Cl)c2)n1O		inconclusive: 14.1 µM [falling, partial curve]
CC1(C)CC(=O)C2=C(C1)NC(SCC(=O)Nc1ccccc1)=C(C#N)C2c1ccco1 (stereo not given)	inconclusive: 6.72%	
Cc1cc(=O)oc2c3c(cc(OCC(=O)NC(C)C)c12)OC(C)(C)CC3		inconclusive: 31.6 µM [falling, single point]

3 entries from above, arranged by length of the SMILES, high to low.
SMILES	activity change, negative = inhibition	Potency
C=CCN=C1N[C@@H](c2ccc(Br)cc2)C(C(=O)OC)=C(C)N1Cc1ccccc1	inconclusive: 4.55%	
O=c1c2[nH]c3ccc(F)cc3c2nc2n1CCCS2	inconclusive: -8.61%	
CCCc1cc(C(=O)OC)c(NC(=O)OCC)s1	inconclusive: 3.3%	

(more compounds)

SMILES	activity change, negative = inhibition	Potency
Cc1cccc2c1cnn2C(=O)Nc1ccc(Br)cc1F	inconclusive: -18.4%	
COc1ccc(NC(=O)c2cccs2)cc1O		inconclusive: 20 µM [falling, single point]
COc1ccc(C(=O)O/N=C(\N)c2ccc(Cl)cc2)cc1	inactive: -0.382%	
Cc1ccc(NC(=O)COC(=O)c2ccc([N+](=O)[O-])o2)cc1S(=O)(=O)N1CCCCCC1	inconclusive: -98.2%	
Cc1nc(-c2ccccc2)sc1-c1nc(-c2cccs2)ncc1S(=O)(=O)c1ccccc1	inconclusive: 8.57%	
COc1ccc(CNC(=O)C[C@H]2C(=O)N(C3CCCCC3)C[C@@H]2Cc2ccccc2)cc1	inactive: -13.2%	
CC12CCC(=O)N1C(C(=O)NCCN1C(=O)S/C(=C\c3ccc(F)cc3)C1=O)CS2 (stereo not given)		inconclusive: 23.1 µM [falling, single point]
Cc1nn(CC(=O)NCC2CCCO2)c(C)c1[N+](=O)[O-] (stereo not given)		inconclusive: 28.2 µM [falling, single point]
Cc1cccc(NC(=O)Nc2cccc3ccccc23)c1		inconclusive: 0.316 µM [falling, full curve, poor fit]
O=C1C2CCCN2C(=O)N1CCN1CCN(CCO)CC1 (stereo not given)	inactive: 4.09%	
CC(CN1c2ccccc2Sc2ccccc21)N(C)C (stereo not given)		inconclusive: 3.16 µM [falling, partial curve, poor fit]
COC(=O)c1ccc(C2Nc3ccc(/C(C)=N/NC(=O)C(OC)c4ccccc4)cc3C3C=CCC32)cc1 (stereo not given)	inactive: -2.13%	
CCc1cc2c(=O)n(Cc3ccco3)c(SCC(=O)NC3CCS(=O)(=O)C3)nc2s1 (stereo not given)	inconclusive: 0.831%	
Cc1cc(/C=C2/NC(=O)N(c3ccccc3)C2=O)c(C)n1-c1cccnc1	inactive: -1.27%	
COc1ccc(CC(=O)Nc2ccc(N(C)C)c3ccccc23)cc1	inconclusive: -6.97%	
CC(=O)N(c1ccc(N(C(C)=O)S(=O)(=O)c2cccs2)cc1)S(=O)(=O)c1cccs1	inconclusive: 12.8%	
O=C(c1ccc(S(=O)(=O)Cc2cc(F)ccc2F)c([N+](=O)[O-])c1)N1CCCC1	inconclusive: -0.81%	
COc1ccc2nc(NC(=O)c3c(C)noc3C)sc2c1		inconclusive: 29.1 µM [falling, partial curve]
Cc1cc(C(=O)O)ccc1N/C=C1\CCCC(C)C1=O (stereo not given)		inconclusive: 1.64 µM [falling, full curve, poor fit]
Cc1ccsc1C(=O)OCC(=O)c1cc(C)n(C)c1C		inconclusive: 13 µM [falling, partial curve, poor fit]
O=C(CCS(=O)(=O)c1ccccc1)N(CCCN1CCOCC1)c1nc2ccc(F)cc2s1	inconclusive: -5.68%	
CCCCc1[nH]c(=O)c(C#N)c2c1CSC(C)(C)C2	inactive: 2.4%	
COC(=O)c1ccccc1NC(=O)c1cc(C2CC2)on1		inconclusive: 4.61 µM [falling, full curve, poor fit]
CCN(CC)S(=O)(=O)c1ccc(C(=O)OCC(=O)NCCN2C(=O)CSC2=O)cc1	inactive: 2.13%	
Cc1ccc(S(=O)(=O)N(C)C)cc1NC(=O)COC(=O)C1CC1	inactive: -2.09%	
CC(=O)n1c(Cl)c(NC(=O)CCl)c2ccccc21		inconclusive: 8.2 µM [falling, partial curve]
